In PubChem BioAssay AID2685 (National Center for Advancing Translational Sciences (NCATS), 2010):
The list shows a part of the results. The main result of the screen is listed elsewhere. These columns were measured beside it and carry no call. The list favours compounds with an active or inconclusive main result. Potencies come from curve fits of mixed quality, noted in brackets.

Assay: qHTS Assay for Lipid Storage Modulators in Drosophila S3 Cells;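 for cell number change: cells counted by Cell Tracker Red CMTPX staining in the red channel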
Details: BODIPY lipid droplet fluorescence, 18-24 h; for cell number change: measured here: cell count max response, cells fed with added oleic acid
Outline: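 Drosophila S3 cells loaded with oleic acid (400 uM, as added) and compounds at several concentrations; lipid droplets imaged by 488-nm laser-scanning cytometry, 500–530 nm intensity and object ratio to cell channel. Percent activity normalized to 20 uM Triacsin C.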

[1] = measured here: lipid fluorescence (Fed channel) AC50, cells fed with added oleic acid
[2] = measured here: cell number channel AC50, cells fed with added oleic acid

For `CC1CC(C)(C)NC(=S)N1CC(=O)N1CCN(Cc2ccc3c(c2)OCO3)CC1` (configuration not stated), the AC50 [1] was 6.51 µM [rising, partial curve].

In the case of `O=C(NCCc1ccccc1)c1ccc(Cl)c(S(=O)(=O)N2CCCC2)c1`, the cell number change was -23.2% and the AC50 [1] was 29.1 µM [falling, partial curve, poor fit].

With `CCOc1ccc(/C=C/C2=NNC(=O)CC2)cc1` the cell number change was -7.54%.

In the case of `COc1cc(C(=O)O/N=C(\N)c2ccccn2)cc(OC)c1OC`, the cell number change was -9.61% and the AC50 [1] was 0.00461 µM [rising, full curve, poor fit].

In the case of `CCOCCCNC(=O)CN1CCN(Cc2ccccc2C)C1=O`, the cell number change was -7.35% and the AC50 [1] was 29.1 µM [falling, single point].

With `O=C(Nc1cccc(C(F)(F)F)c1)C12CC3CC(CC(C3)C1)C2` the cell number change was -27.3% and the AC50 [1] was 18.4 µM [falling, single point].

For `CC(=O)c1c(C)[nH]c(C(=O)N2CCN(S(=O)(=O)c3ccc(F)c(F)c3)CC2)c1C`, the cell number change was -25.4% and the AC50 [1] was 0.82 µM [falling, full curve, poor fit].

With `O=[N+]([O-])c1ccc(/C=N/NS(=O)(=O)c2ccc(Cl)cc2)o1` the cell number change was 87.5%, the AC50 [2] was 18.4 µM [rising, partial curve, poor fit] and the AC50 [1] was 2.06 µM [falling, partial curve, poor fit].

In the case of `CCOC(=O)CCNC(=O)CNC(=O)OCc1ccccc1`, the cell number change was 20.4% and the AC50 [1] was 6.51 µM [falling, single point].

With `O=C(OCCCOC(=O)c1ccc(O)cc1)c1ccc(O)cc1` the cell number change was -9.63% and the AC50 [1] was 29.1 µM [falling, single point].

`O=Cc1cn(CCOc2ccccc2)c2ccccc12` showed a cell number change of -24.5%.

With `Cn1c(CCNC(=O)OC(C)(C)C)n[nH]c1=S` the cell number change was 4.35% and the AC50 [1] was 0.0731 µM [falling, full curve, poor fit].

With `CC(C)C1Cc2c(sc3ncnc(NN)c23)CO1` (configuration not stated) the cell number change was 20.7% and the AC50 [1] was 0.116 µM [rising, full curve, poor fit].

For `CCOC(=O)Cn1c(-c2cccnc2Cl)nc2ccccc21`, the AC50 [1] was 6.51 µM [falling, single point].

For `Cc1ccc(NCc2nnc(SCC(=O)c3ccccc3)o2)c(C)c1`, the AC50 [2] was 5.8 µM [rising, single point] and the AC50 [1] was 5.17 µM [rising, single point].

In the case of `CCCCNC(=O)c1c[nH]c2ccc(S(=O)(=O)N3CCOCC3)cc2c1=O`, the AC50 [1] was 4.61 µM [rising, partial curve].

For `CCOc1cc(C(=O)NCCN2C(=O)S/C(=C\c3cccnc3)C2=O)cc(OCC)c1OCC`, the cell number change was 24.1%.

With `C#CCOCCOCCOCCNc1nc(N2CCN(C(=O)CCCCCCCCCCNC(=O)[C@H](CCC(=O)O)n3cc(CCCCCN)nn3)CC2)nc(N2CCN(C(=O)CCCCCCCCCCNC(=O)[C@@H]([C@H](C)O)n3cc(C)nn3)CC2)n1` the cell number change was 16% and the AC50 [1] was 6.51 µM [falling, single point].

`COc1ccc(OC)c2[nH]c(=O)c(CCNC(=O)c3ccc(S(=O)(=O)N4CCCCC4)cc3)cc12` showed a cell number change of -31.5%.

Work on `COc1ccc(-n2nc3ccc(NS(C)(=O)=O)cc3n2)cc1Cl` yielded a cell number change of 1.88%.

In the case of `CC(C)(C)C1CCc2c(C(=O)NNC(=O)/C=C/C(=O)O)csc2C1` (configuration not stated), the cell number change was 31.4%, the AC50 [2] was 8.2 µM [rising, partial curve] and the AC50 [1] was 0.731 µM [falling, full curve].

`O=C(NC1CCCCC1)C(c1ccncc1)N(C(=O)c1csnn1)c1cccc(F)c1` (configuration not stated) showed a cell number change of -12.8%.

In the case of `COC(=O)N/N=C(\C)c1ccc2ccccc2c1OC(F)F`, the cell number change was -8.46% and the AC50 [1] was 8.2 µM [rising, partial curve].

In the case of `O=C(CN1CCN(c2ccc(O)cc2)CC1)NC1CCCc2ccccc21` (configuration not stated), the cell number change was -23.3% and the AC50 [1] was 9.2 µM [rising, partial curve].

With `C/C(N)=C(/C#N)C(=O)COC(=O)COc1ccc(Cl)cc1` the cell number change was -137%, the AC50 [2] was 23.1 µM [falling, partial curve] and the AC50 [1] was 2.31 µM [falling, partial curve, poor fit].

In the case of `Nn1c(SCC(=O)Nc2ccc(F)cc2)nnc1-c1ccccn1`, the AC50 [2] was 1.46 µM [falling, partial curve].

With `Cc1nc2nc[nH]n2c(=O)c1NC(=O)c1c(-c2ccccc2Cl)noc1C` the cell number change was -10.8% and the AC50 [1] was 1.64 µM [falling, partial curve].

With `O=C(C1CCC(CNS(=O)(=O)c2cccc3nsnc23)CC1)N1CC=C(c2ccccc2)CC1` (configuration not stated) the cell number change was -20% and the AC50 [1] was 18.4 µM [falling, single point].

In the case of `COc1ccc(C2=NNC(c3cc(Cl)cc4c3OCOC4)C2)c(O)c1` (configuration not stated), the cell number change was 108%, the AC50 [2] was 20.6 µM [rising, single point] and the AC50 [1] was 29.1 µM [rising, single point].

For `COc1ccc2c(c1)c1nnc(SCC(=O)Nc3ccccc3F)nc1n2C`, the cell number change was 8.37% and the AC50 [1] was 29.1 µM [falling, single point].

`CC(C)(NC(=O)N1CCCC1)c1cccc(C(C)(C)NC(=O)N2CCCC2)c1` gave a cell number change of -29.5%.

In the case of `COC(=O)C(CCSC)NC(=O)/C=C/c1ccc(OC)cc1` (configuration not stated), the AC50 [2] was 0.291 µM [rising, partial curve] and the AC50 [1] was 0.231 µM [rising, full curve].

In the case of `COC(=O)c1cc(Br)c(=O)n(-c2ccc(F)cc2)c1`, the cell number change was -45.9%, the AC50 [2] was 3.26 µM [falling, full curve] and the AC50 [1] was 29.1 µM [falling, single point].

In the case of `NC(=O)NC(=O)COC(=O)[C@H](Cc1ccccc1)NC(=O)c1cccs1`, the cell number change was 66.5% and the AC50 [2] was 14.6 µM [rising, partial curve, poor fit].

For `CN(C)CCOC(=O)CCCCCCCCC(=O)OCCN(C)C`, the cell number change was 3.7% and the AC50 [1] was 5.17 µM [falling, partial curve, poor fit].

For `CCOC(=O)c1ccc2ncc(C(=O)OCC)c(NCCN3CCOCC3)c2c1`, the cell number change was -22.9% and the AC50 [1] was 5.17 µM [rising, single point].

With `COCCNC(=S)N(CCc1c(C)[nH]c2ccc(OC)cc12)Cc1ccco1` the cell number change was -3.55% and the AC50 [1] was 0.651 µM [falling, single point].

With `CCN1CCN(c2cc(C)c3cc(NC(=O)CCC(=O)Nc4ccc(OC)cc4OC)ccc3n2)CC1` the cell number change was -8.11% and the AC50 [1] was 29.1 µM [falling, single point].

`Cc1cc(/C=N/n2cnnc2)c(C)n1-c1cc(Cl)ccc1Cl` showed a cell number change of 0.129%.

With `CNC(=O)c1c2c(nc3ccc(Br)cc13)CCCC2` the AC50 [1] was 0.116 µM [rising, single point].

In the case of `Cc1c(NC(=O)C2CCCCN2S(=O)(=O)c2ccc(Cl)cc2)c(=O)n(-c2ccccc2)n1C` (configuration not stated), the cell number change was 11.4% and the AC50 [1] was 1.64 µM [falling, partial curve].

In the case of `C[C@H]1[C@H]2c3nc4ccccc4n3C[C@H]1ON2C1CCCCC1`, the cell number change was -9.28% and the AC50 [1] was 32.6 µM [falling, single point].

With `CC(=O)c1cccc(NC(=S)NC2CCCCCCC2)c1` the cell number change was -4.91% and the AC50 [1] was 29.1 µM [falling, single point].

In the case of `O=C(CN(C(=O)CNS(=O)(=O)c1ccccc1)C1CCCC1)NCc1ccco1`, the cell number change was -21.7%.

For `CN(C)C(CNC(=O)c1cccs1)c1ccco1` (configuration not stated), the cell number change was -10.4% and the AC50 [1] was 16.4 µM [rising, partial curve].

In the case of `CCC(C)N(C(=O)COc1ccc(Br)cc1C=O)C1CCS(=O)(=O)C1` (configuration not stated), the cell number change was 48.5% and the AC50 [2] was 13 µM [rising, single point].

`COc1ccccc1CN1CC(C(=O)NCc2cnn(C)c2)CCC1=O` (configuration not stated) gave a cell number change of 1.76%.

In the case of `COCCCn1c(=O)c2sccc2n2c(CCCC(=O)NCc3ccc(F)cc3)nnc12`, the cell number change was 1.91% and the AC50 [1] was 0.58 µM [falling, single point].

For `CCCN(CC(=O)Nc1ccccc1C)C(=O)c1cn2ccccc2n1`, the cell number change was -9.59% and the AC50 [1] was 3.66 µM [rising, partial curve, poor fit].

With `Cn1c(=O)c(=O)n(C)c2cc([N+](=O)[O-])c([N+](=O)[O-])cc21` the cell number change was -49.1%, the AC50 [2] was 0.00461 µM [falling, full curve, poor fit] and the AC50 [1] was 0.00461 µM [falling, full curve, poor fit].

For `CCOc1ccc(C(=O)OCCN(C)C)cc1`, the cell number change was -32.7%, the AC50 [2] was 4.11 µM [falling, full curve] and the AC50 [1] was 29.1 µM [falling, single point].

In the case of `CC(=O)N1CCc2cc(NC(=O)c3ccc(C)cc3)ccc21`, the AC50 [2] was 1.84 µM [rising, partial curve, poor fit] and the AC50 [1] was 0.411 µM [rising, single point].

With `COc1ccc(NC(=O)C2CCN(c3cnccn3)CC2)cc1Cl` the cell number change was 9.79% and the AC50 [1] was 25.9 µM [rising, single point].

For `CC(=O)OCC1=C(C(=O)O)N2C(=O)C(NC(=O)c3ccc(COc4cccc(Cl)c4Cl)o3)C2SC1` (configuration not stated), the cell number change was -37.7% and the AC50 [2] was 29.1 µM [falling, single point].

With `COc1ccc(OC)c(Nc2nc(NCCCN(C)C)nc(N)c2[N+](=O)[O-])c1` the cell number change was -32.1%, the AC50 [2] was 5.17 µM [falling, partial curve] and the AC50 [1] was 8.2 µM [falling, partial curve].

With `COc1ccc(NC(=O)c2cccc(S(=O)(=O)N3CCN(C)CC3)c2)c(OC)c1` the cell number change was 13.5% and the AC50 [1] was 20.6 µM [falling, partial curve].

For `CC(=NCc1ccco1)c1c(C)[nH]n(-c2nc3ccccc3s2)c1=O`, the cell number change was -0.489% and the AC50 [1] was 6.51 µM [falling, single point].

For `COc1ccc(Cl)cc1NC(=O)C(C)N1CCN(C/C=C/c2ccccc2)CC1` (configuration not stated), the cell number change was 11.4%, the AC50 [2] was 2.06 µM [rising, partial curve] and the AC50 [1] was 6.51 µM [rising, single point].

For `COc1ccc(NC(=O)CSc2nc(-c3ccco3)nc3cc(=O)[nH]n23)cc1Cl`, the cell number change was -12.7% and the AC50 [1] was 1.3 µM [falling, partial curve].
